Measurements taken from publication PMC8718910.

Biological target: T1, rat nucleosome assembly protein 1 like 5 (rNap1l5-Flag) (rat) (UniProt Q5PPG6)
T1 sequence: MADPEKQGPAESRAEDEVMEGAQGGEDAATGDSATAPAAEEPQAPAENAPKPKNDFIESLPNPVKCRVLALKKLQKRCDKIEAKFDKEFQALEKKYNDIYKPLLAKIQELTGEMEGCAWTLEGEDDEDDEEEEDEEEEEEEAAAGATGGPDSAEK
Assay: co-IP; HEK293T cells co-transfected with the plasmids; IP buffer 50mM Tris-HCl (pH 8.0), 150mM NaCl, 2mM EDTA, 1% NP-40, 5% glycerol; 1 μg antibody and protein A/G-agarose beads at 4°C overnight; blotted with the indicated primary antibodies

## rat nucleolar protein 6, full-length (Nol6)
  binding: no binding

No constants are given. Whether binding was seen depends on the method and setting. Binding seen in cells or lysates may run through a third protein. Where a sequence is shown, tags or fusion partners need not be part of it.
